Publication PMC12781089
Results are given in words; binding and its absence hold for the method and conditions named. For some assays here: In cells and extracts the contact can be indirect. Some entries that bind do so weakly or less than the wild type.

Chains of the proteins cited; added tags and fusions are not shown. Residues count along the entry.
UniProt Q14643: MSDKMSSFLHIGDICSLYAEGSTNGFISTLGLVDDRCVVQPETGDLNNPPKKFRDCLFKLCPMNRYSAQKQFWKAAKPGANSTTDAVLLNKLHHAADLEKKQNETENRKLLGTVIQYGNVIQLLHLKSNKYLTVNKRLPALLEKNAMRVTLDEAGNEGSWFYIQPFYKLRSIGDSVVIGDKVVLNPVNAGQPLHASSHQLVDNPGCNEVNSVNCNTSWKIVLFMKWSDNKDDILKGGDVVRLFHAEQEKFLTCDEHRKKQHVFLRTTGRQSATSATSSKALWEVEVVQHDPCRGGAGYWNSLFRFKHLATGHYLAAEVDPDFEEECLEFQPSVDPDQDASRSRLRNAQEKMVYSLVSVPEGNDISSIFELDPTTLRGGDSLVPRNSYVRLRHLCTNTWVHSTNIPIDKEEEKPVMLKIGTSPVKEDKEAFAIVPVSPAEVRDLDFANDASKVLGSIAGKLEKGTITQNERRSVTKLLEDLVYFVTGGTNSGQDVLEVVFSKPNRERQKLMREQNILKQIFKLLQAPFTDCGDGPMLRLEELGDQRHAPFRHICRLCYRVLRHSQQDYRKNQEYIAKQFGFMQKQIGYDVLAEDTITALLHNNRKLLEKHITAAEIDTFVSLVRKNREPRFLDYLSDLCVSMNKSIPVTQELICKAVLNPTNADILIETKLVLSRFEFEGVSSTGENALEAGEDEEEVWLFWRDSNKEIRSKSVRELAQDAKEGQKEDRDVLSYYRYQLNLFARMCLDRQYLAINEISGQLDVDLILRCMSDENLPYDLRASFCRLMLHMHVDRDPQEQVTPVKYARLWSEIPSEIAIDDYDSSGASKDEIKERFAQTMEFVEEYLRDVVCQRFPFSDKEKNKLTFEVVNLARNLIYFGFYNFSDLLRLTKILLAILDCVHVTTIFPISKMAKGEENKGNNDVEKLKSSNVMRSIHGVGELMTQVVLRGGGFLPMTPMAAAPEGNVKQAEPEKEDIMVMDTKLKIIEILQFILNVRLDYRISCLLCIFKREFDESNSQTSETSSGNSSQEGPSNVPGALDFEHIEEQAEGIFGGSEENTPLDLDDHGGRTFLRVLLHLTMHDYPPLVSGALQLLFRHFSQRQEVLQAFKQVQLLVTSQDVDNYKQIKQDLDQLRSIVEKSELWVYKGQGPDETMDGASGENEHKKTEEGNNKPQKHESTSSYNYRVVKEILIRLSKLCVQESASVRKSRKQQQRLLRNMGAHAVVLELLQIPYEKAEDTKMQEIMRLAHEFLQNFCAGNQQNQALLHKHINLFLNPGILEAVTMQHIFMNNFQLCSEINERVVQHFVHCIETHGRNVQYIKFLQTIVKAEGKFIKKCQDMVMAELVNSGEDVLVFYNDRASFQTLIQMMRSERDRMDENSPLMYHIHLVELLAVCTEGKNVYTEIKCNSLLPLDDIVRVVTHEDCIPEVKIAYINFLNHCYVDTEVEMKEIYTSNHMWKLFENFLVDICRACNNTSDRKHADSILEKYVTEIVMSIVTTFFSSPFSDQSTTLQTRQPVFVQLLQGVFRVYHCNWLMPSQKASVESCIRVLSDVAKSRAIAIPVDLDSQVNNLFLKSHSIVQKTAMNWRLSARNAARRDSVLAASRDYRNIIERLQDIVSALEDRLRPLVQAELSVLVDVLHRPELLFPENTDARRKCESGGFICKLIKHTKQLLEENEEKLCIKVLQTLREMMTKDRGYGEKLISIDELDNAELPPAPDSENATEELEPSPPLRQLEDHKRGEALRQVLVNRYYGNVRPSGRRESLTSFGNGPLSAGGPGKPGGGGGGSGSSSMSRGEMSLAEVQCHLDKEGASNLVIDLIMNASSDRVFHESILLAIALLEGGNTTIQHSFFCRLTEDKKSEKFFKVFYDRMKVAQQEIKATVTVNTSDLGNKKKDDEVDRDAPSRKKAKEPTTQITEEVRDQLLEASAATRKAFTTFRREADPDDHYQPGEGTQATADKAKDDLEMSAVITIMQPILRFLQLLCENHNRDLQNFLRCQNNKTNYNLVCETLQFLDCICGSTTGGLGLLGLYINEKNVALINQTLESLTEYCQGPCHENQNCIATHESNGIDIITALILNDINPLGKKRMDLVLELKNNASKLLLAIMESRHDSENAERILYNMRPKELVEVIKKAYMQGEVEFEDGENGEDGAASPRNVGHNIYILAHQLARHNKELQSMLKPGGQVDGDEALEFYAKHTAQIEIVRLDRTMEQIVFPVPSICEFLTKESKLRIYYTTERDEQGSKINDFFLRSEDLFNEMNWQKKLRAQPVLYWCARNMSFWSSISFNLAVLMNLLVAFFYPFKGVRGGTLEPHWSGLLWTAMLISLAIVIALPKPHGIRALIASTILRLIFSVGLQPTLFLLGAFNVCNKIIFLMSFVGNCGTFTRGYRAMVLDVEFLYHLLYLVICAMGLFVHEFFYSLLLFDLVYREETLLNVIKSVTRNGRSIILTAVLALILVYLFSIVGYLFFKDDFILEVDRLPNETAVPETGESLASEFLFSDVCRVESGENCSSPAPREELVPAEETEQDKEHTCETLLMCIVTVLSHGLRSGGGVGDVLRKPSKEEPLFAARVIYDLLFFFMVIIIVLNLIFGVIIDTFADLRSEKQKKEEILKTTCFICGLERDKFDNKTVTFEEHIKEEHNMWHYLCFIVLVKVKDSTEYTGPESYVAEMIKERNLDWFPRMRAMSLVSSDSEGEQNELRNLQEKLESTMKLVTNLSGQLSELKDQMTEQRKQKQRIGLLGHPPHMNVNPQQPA
UniProt O60260: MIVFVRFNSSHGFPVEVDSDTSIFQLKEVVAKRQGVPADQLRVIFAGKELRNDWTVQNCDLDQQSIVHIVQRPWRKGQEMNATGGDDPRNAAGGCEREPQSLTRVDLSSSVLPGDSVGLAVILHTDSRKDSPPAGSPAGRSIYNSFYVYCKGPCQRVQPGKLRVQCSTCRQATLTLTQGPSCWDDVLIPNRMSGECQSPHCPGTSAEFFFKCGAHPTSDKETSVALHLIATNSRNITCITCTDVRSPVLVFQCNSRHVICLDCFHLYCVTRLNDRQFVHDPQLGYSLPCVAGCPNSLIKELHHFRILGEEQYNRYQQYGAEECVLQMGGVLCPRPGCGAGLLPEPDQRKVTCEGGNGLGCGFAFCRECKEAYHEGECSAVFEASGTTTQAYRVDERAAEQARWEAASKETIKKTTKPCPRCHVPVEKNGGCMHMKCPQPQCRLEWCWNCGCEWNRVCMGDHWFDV
UniProt P38646, residues 47-679: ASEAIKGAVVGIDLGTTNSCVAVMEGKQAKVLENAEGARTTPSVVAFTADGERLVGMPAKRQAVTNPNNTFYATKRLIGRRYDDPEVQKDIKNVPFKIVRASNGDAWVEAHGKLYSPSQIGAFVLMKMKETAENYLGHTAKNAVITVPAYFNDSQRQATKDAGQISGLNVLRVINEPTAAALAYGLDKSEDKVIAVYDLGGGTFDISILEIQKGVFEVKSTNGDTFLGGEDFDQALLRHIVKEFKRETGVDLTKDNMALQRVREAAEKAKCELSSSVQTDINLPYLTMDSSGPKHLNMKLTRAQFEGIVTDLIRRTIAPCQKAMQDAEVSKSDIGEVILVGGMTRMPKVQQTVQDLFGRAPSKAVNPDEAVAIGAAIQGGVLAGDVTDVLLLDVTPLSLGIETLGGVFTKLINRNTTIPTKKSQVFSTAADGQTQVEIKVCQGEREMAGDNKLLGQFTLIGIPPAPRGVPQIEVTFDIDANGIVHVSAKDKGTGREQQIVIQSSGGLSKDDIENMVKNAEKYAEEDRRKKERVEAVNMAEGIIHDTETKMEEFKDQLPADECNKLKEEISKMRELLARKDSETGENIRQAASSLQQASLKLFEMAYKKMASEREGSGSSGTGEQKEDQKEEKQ
UniProt P38647, residues 47-679: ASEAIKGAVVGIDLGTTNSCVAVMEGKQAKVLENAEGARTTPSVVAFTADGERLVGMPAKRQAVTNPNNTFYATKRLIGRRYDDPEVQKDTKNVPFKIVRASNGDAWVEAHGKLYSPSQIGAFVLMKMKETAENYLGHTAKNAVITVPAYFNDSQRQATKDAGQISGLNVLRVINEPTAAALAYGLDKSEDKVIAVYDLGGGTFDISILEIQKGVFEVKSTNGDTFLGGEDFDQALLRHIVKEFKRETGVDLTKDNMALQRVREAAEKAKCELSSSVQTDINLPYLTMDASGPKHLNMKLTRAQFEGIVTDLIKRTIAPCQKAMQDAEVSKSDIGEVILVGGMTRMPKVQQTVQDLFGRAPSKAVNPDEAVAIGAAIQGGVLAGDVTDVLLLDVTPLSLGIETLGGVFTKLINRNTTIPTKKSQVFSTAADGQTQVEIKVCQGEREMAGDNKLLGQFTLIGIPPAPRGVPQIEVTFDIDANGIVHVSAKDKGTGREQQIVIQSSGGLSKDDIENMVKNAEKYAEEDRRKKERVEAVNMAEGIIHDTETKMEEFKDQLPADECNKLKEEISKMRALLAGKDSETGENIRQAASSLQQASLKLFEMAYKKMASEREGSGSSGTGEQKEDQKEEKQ
UniProt P21796: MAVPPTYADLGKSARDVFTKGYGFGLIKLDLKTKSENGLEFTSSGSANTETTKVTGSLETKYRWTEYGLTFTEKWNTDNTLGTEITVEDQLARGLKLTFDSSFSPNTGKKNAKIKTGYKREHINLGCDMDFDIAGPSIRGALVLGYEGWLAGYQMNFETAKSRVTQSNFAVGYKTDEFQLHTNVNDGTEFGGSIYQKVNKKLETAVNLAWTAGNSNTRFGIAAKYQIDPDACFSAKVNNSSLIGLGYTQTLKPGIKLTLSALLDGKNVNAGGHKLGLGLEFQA

Experiments:
[1] = target: inositol-1,4,5-triphosphate receptor (IP3R) (human (endogenous in M17 and SH-SY5Y)) (UniProt Q14643); assay: co-IP; IP3R antibody on Dynabeads Protein G, lysates of control and Parkin KO M17 and SH-SY5Y cells
[2] = target: Parkin, overexpressed wild type (Parkin OE M17 cells) (human) (UniProt O60260); assay: co-IP; Parkin antibody on Dynabeads Protein G, total NP-40 lysates of Parkin-overexpressing M17 cells, 4 C overnight; also after 2-APB (50 uM, 2 h) or CCCP (20 uM, 1 h) for IP3R
[3] = target: Parkin, overexpressed wild type (Parkin OE M17 cells) (human) (UniProt O60260); assay: native gel or EMSA; BN-PAGE (3-12% Bis-Tris) and 2D BN/SDS-PAGE with immunoblot of crude mitochondria fractions (1% NP40) from Parkin-overexpressing M17 cells; also after 2-APB or CCCP
[4] = target: inositol-1,4,5-triphosphate receptor (IP3R) (human (endogenous in M17 and SH-SY5Y)) (UniProt Q14643); assay: as above
[5] = target: Parkin (human (endogenous in M17)) (UniProt O60260); assay: proximity ligation; Duolink in situ PLA with Parkin antibody paired with IP3R, Grp75 or VDAC1 antibody in fixed control M17 cells; also after 2-APB (50 uM, 2 h) or CCCP (20 uM, 1 h) for Parkin/IP3R
[6] = target: T1, Parkin (mouse brain) (mouse (endogenous in brain)) (UniProt Q9WVS6); assay: co-IP; Parkin antibody on Dynabeads Protein G, total lysates of ventral midbrain of mouse brain
T1 sequence: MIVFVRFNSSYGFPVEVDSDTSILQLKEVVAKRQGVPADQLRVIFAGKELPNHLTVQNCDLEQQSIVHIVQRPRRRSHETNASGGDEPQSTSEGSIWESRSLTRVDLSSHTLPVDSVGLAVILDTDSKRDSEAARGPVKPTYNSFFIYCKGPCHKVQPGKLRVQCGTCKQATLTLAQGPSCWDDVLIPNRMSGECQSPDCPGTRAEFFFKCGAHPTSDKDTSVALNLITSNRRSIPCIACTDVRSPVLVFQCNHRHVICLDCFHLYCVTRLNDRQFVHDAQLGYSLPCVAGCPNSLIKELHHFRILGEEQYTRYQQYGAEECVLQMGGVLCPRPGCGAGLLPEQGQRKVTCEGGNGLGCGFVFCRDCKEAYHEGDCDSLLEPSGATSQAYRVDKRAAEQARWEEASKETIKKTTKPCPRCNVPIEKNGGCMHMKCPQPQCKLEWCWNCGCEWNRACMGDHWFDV

[7] = target: T1, Parkin (mouse brain) (mouse (endogenous in brain)); assay: co-IP; Parkin antibody on Dynabeads Protein G, MAM fractions prepared from the ventral midbrain of mouse brain
[8] = target: T1, Parkin (mouse brain) (mouse (endogenous in brain)); assay: native gel or EMSA; BN-PAGE with immunoblot of crude mitochondria fractions from ventral midbrain of mouse brain
[9] = target: inositol-1,4,5-triphosphate receptor (IP3R), mouse brain (mouse (endogenous in brain)) (UniProt P11881); assay: as above
[10] = target: inositol-1,4,5-triphosphate receptor (IP3R), mouse brain (mouse (endogenous in brain)) (UniProt P11881); assay: co-IP; IP3R antibody on Dynabeads Protein G, brain homogenates (ventral midbrain lysates) of WT and Parkin KO mice
[11] = target: inositol-1,4,5-triphosphate receptor (IP3R) (human (endogenous in M17 and SH-SY5Y)) (UniProt Q14643); assay: proximity ligation; Duolink in situ PLA with IP3R and VDAC1 antibodies in fixed control and Parkin KO M17 and SH-SY5Y cells
[12] = target: T1, Parkin (mouse brain) (mouse (endogenous in brain)); assay: co-IP; co-IP of Parkin and IP3R from extracted ER fractions (source of the fractions not given)

Substance | binding [1] | binding [2] | binding [3] | binding [4] | binding [5] | binding [6] | binding [7] | binding [8] | binding [9] | binding [10] | binding [11] | binding [12]
Grp75 (from UniProt P38646 47-679) | binds | binds | binds | binds | binds | – | – | – | – | – | – | –
Grp75, mouse brain (from UniProt P38647 47-679) | – | – | – | – | – | binds | binds | binds | binds | binds | – | –
VDAC1 (from UniProt P21796 1-283) | binds | binds | binds | binds | binds | – | – | – | – | – | binds | –
inositol-1,4,5-triphosphate receptor (IP3R), mouse brain (from UniProt P11881 1-2749) | – | – | – | – | – | binds | binds | binds | – | – | – | no binding (condition: in extracted ER fractions)
